According to paper PMC10891341:
Results are given in words; binding and its absence hold for the method and conditions named. Binding seen in cells or lysates may run through a third protein. Some results given as binding are weak or reduced against the parent protein; the word gives no strength. For part of these data: Where a sequence is shown, tags or fusion partners need not be part of it.

Amino acid sequences for entries named in this document (tags omitted).
UniProt Q9BPZ7: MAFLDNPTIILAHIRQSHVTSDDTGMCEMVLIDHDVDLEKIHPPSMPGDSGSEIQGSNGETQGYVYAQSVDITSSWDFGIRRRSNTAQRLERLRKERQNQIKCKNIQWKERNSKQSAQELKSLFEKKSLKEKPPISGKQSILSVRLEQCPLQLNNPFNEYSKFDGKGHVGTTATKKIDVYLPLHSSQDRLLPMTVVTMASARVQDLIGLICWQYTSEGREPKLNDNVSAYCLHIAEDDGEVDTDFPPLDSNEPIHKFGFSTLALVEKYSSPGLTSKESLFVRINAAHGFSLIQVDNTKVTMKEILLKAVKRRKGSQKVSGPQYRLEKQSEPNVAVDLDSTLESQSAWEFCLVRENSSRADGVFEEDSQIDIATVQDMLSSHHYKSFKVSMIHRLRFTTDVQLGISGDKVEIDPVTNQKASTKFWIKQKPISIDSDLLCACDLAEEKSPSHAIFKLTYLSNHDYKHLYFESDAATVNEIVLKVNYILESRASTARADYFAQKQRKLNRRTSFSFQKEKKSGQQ

T1: NOP14 tagged with S-FLAG-SBP (SFB) (human) (UniProt P78316)
T1 sequence: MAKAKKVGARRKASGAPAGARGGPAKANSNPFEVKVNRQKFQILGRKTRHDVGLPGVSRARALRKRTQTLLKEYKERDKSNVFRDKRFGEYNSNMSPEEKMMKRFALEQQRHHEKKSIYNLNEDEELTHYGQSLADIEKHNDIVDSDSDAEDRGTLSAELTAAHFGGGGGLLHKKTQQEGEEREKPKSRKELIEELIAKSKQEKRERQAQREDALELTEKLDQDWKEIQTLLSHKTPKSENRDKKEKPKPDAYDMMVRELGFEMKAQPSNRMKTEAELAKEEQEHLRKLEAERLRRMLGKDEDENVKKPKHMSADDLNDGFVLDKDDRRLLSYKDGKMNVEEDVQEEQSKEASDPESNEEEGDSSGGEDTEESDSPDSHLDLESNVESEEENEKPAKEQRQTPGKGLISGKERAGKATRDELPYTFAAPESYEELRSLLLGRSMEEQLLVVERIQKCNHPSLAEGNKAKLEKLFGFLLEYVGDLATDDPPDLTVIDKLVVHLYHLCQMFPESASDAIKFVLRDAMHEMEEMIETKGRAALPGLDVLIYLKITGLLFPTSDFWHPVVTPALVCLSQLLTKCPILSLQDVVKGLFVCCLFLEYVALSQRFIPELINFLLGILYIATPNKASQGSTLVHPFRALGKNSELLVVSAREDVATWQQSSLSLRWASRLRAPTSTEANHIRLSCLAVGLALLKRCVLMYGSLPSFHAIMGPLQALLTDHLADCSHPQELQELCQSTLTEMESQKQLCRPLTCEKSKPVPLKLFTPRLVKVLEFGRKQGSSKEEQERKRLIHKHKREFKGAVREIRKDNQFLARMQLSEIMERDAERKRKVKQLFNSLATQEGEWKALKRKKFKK

B1: HA-tagged BYSL (protein, UniProt Q13895 1-437)
chain: MPKFKAARGVGGQEKHAPLADQILAGNAVRAGVREKRRGRGTGEAEEEYVGPRLSRRILQQARQQQEELEAEHGTGDKPAAPRERTTRLGPRMPQDGSDDEDEEWPTLEKAATMTAAGHHAEVVVDPEDERAIEMFMNKNPPARRTLADIIMEKLTEKQTEVETVMSEVSGFPMPQLDPRVLEVYRGVREVLSKYRSGKLPKAFKIIPALSNWEQILYVTEPEAWTAAAMYQATRIFASNLKERMAQRFYNLVLLPRVRDDVAEYKRLNFHLYMALKKALFKPGAWFKGILIPLCESGTCTLREAIIVGSIITKCSIPVLHSSAAMLKIAEMEYSGANSIFLRLLLDKKYALPYRVLDALVFHFLGFRTEKRELPVLWHQCLLTLVQRYKADLATDQKEALLELLRLQPHPQLSPEIRRELQSAVPRDVEDVPITVE
B2: HA-tagged NOC4L (protein, UniProt Q9BVI4 1-516)
chain: MEREPGAAGVRRALGRRLEAVLASRSEANAVFDILAVLQSEDQEEIQEAVRTCSRLFGALLERGELFVGQLPSEEMVMTGSQGATRKYKVWMRHRYHSCCNRLGELLGHPSFQVKELALSALLKFVQLEGAHPLEKSKWEGNYLFPRELFKLVVGGLLSPEEDQSLLLSQFREYLDYDDTRYHTMQAAVDAVARVTGQHPEVPPAFWNNAFTLLSAVSLPRREPTVSSFYVKRAELWDTWKVAHLKEHRRVFQAMWLSFLKHKLPLSLYKKVLLIVHDAILPQLAQPTLMIDFLTRACDLGGALSLLALNGLFILIHKHNLEYPDFYRKLYGLLDPSVFHVKYRARFFHLADLFLSSSHLPAYLVAAFAKRLARLALTAPPEALLMVLPFICNLLRRHPACRVLVHRPHGPELDADPYDPGEEDPAQSRALESSLWELQALQRHYHPEVSKAASVINQALSMPEVSIAPLLELTAYEIFERDLKKKGPEPVPLEFIPAQGLLGRPGELCAQHFTLS
B3: NOP14 (protein, UniProt P78316 1-857)
chain: T1 sequence

What was measured:
[1] = target: T1, NOP14 tagged with S-FLAG-SBP (SFB) (human); assay: co-IP; SFB-tagged NOP14 with HA-tagged prey proteins; cell lysates precipitated with S-protein beads, immunoblot
[2] = target: Sin1 (human (endogenous in 293T)) (UniProt Q9BPZ7); assay: co-IP; 293T cells with scrambled or NOP14 shRNA (72 h); lysates in CHAPS buffer immunoprecipitated with anti-Sin1 antibody or control IgG, immunoblot

Binder	binding [1]	binding [2]
B1	binds	
B2	binds	
B3		no binding
